# The list shows a part of the results. Many values rest on one well or one pass, so single values are uncertain.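 Imaging used 1,536-well plates; nuclei positive for cleaved PARP by antibody were divided by total DNA-stained nuclei to yield the apoptosis fraction. Doses for screening kept most cells viable, and cell lines differ markedly in resting and induced cleaved-PARP levels.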
# How the values were obtained:
# Test in all cases: cleaved PARP positive nuclei fraction relative to DMSO control; melanoma cells; higher = more apoptosis
# Details in all cases: library dose: low library concentration; 72 h
# MeWo = system: MeWo
# RPMI7951 = system: RPMI7951
# RVH-421 = system: RVH-421
# SkMel28 = system: SkMel28
# SkMel2 = system: SkMel2
# SkMel30 = system: SkMel30
# SkMel5 = system: SkMel5
# UACC257 = system: UACC257
# UACC62 = system: UACC62
# WM115 = system: WM115
# WM1716 = system: WM1716
# WM1745 = system: WM1745
# WM3526 = system: WM3526
# WM3619 = system: WM3619
# WM451Lu = system: WM451Lu
# MZ2-MEL = system: MZ2-MEL
SMILES,cleaved PARP positive nuclei fraction (MeWo) [%],cleaved PARP positive nuclei fraction (RPMI7951) [%],cleaved PARP positive nuclei fraction (RVH-421) [%],cleaved PARP positive nuclei fraction (SkMel28) [%],cleaved PARP positive nuclei fraction (SkMel2) [%],cleaved PARP positive nuclei fraction (SkMel30) [%],cleaved PARP positive nuclei fraction (SkMel5) [%],cleaved PARP positive nuclei fraction (UACC257) [%],cleaved PARP positive nuclei fraction (UACC62) [%],cleaved PARP positive nuclei fraction (WM115) [%],cleaved PARP positive nuclei fraction (WM1716) [%],cleaved PARP positive nuclei fraction (WM1745) [%],cleaved PARP positive nuclei fraction (WM3526) [%],cleaved PARP positive nuclei fraction (WM3619) [%],cleaved PARP positive nuclei fraction (WM451Lu) [%],cleaved PARP positive nuclei fraction (MZ2-MEL) [%]
"O=C(O)c1ccc2c(c1)nc(Nc1cccc(Cl)c1)c1ccncc12 + C=CCn1c(=O)c2cnc(Nc3ccc(N4CCN(C)CC4)cc3)nc2n1-c1cccc(C(C)(C)O)n1 [MK1775] (first compound 0.4 µM, partner dose 0.02 µM)",53.7,97.6,104,128,125,76.9,161,37.4,113,79.2,273,102,63,142,118,
"O=C(O)[C@@H]1[O][Sb](=[O])([O][Sb]2(=[O])[O][C@H]([C@H](O)CO)[C@H](O)[C@H](C(=O)O)[O]2)[O][C@H]([C@H](O)CO)[C@@H]1O (stereo not given in full) [stibogluconate] + N#Cc1c(O)c2c(-c3ccc(-c4ccccc4O)cc3)csc2[nH]c1=O [A769662] (first compound 2 µM, partner dose 2 µM)",160,206,151,116,86.6,138,153,44.3,90.6,87.8,101,77.5,465,99.7,134,
"Nc1nc(F)nc2c1ncn2[C@@H]1O[C@H](CO)[C@@H](O)[C@@H]1O [fludarabine] + Oc1nc(-c2ccc(C(F)(F)F)cc2)nc2c1CSCC2 [XAV939] (first compound 0.2 µM, partner dose 2 µM)",200,160,72.9,81.9,1330,309,151,390,79.4,40.6,228,112,607,170,613,
"C[C@@H](Oc1cc(-c2cnn(C3CCNCC3)c2)cnc1N)c1c(Cl)ccc(F)c1Cl [Crizotinib] + O=C(Nc1ccccc1)c1cc([N+](=O)[O-])ccc1Cl [GW9662] (first compound 0.2 µM, partner dose 2 µM)",53.4,129,96.7,89.4,103,55.7,78.4,78.4,56.6,68.1,125,98.1,202,96.9,183,
"CO[C@H]1C[C@@H]2CC[C@@H](C)[C@@](O)(O2)C(=O)C(=O)N2CCCC[C@H]2C(=O)O[C@H]([C@H](C)C[C@@H]2CC[C@@H](OCCO)[C@H](OC)C2)CC(=O)[C@H](C)/C=C(\C)[C@@H](O)[C@@H](OC)C(=O)[C@H](C)C[C@H](C)/C=C/C=C/C=C/1C [everolimus] + CCCS(=O)(=O)Nc1ccc(F)c(C(=O)c2c[nH]c3ncc(Cl)cc23)c1F [PLX4720] (first compound 0.02 µM, partner dose 0.08 µM)",138,73.2,120,279,,112,,,840,217,45.3,111,81.8,137,211,275
"CS(=O)(=O)CCNCc1ccc(-c2ccc3ncnc(Nc4ccc(OCc5cccc(F)c5)c(Cl)c4)c3c2)o1 [lapatinib] + COc1cc(Nc2ncc(F)c(Nc3ccc4c(n3)NC(=O)C(C)(C)O4)n2)cc(OC)c1OC [Tamatinib] (first compound 0.8 µM, partner dose 0.4 µM)",64,99,67.9,55.3,131,65.4,197,192,164,105,72.3,107,63.3,106,136,
"CN1CCN(c2ccc3nc(-c4c(N)c5c(F)cccc5[nH]c4=O)[nH]c3c2)CC1 [Dovitinib] + O=S(=O)(c1ccccc1)N(CC(F)(F)F)c1ccc(C(O)(C(F)(F)F)C(F)(F)F)cc1 [T0901317] (first compound 0.1 µM, partner dose 1.4 µM)",33.7,95.6,170,129,52.1,28.4,85.1,67.5,132,115,33,254,103,85.9,33,
"Cc1cc(Nc2cc(N3CCN(C)CC3)nc(/C=C/c3ccccc3)n2)n[nH]1 + COc1cc2ncnc(Nc3ccc(Oc4ccccc4)cc3)c2cc1OC [SrcI1] (first compound 0.04 µM, partner dose 2 µM)",39,83.2,182,16.8,104,71,79.5,37.4,266,74.5,86.5,102,84.6,94.5,63.1,
"O=C(O)[C@@H]1[O][Sb](=[O])([O][Sb]2(=[O])[O][C@H]([C@H](O)CO)[C@H](O)[C@H](C(=O)O)[O]2)[O][C@H]([C@H](O)CO)[C@@H]1O (stereo not given in full) [stibogluconate] + O=S(=O)(c1ccccc1)N(CC(F)(F)F)c1ccc(C(O)(C(F)(F)F)C(F)(F)F)cc1 [T0901317] (first compound 2 µM, partner dose 1.4 µM)",97.9,35.7,41,111,65.5,48.6,70.5,131,117,130,146,113,150,86.1,42.5,
"CO[C@H]1C[C@@H]2CC[C@@H](C)[C@@](O)(O2)C(=O)C(=O)N2CCCC[C@H]2C(=O)O[C@H]([C@H](C)C[C@@H]2CC[C@@H](OCCO)[C@H](OC)C2)CC(=O)[C@H](C)/C=C(\C)[C@@H](O)[C@@H](OC)C(=O)[C@H](C)C[C@H](C)/C=C/C=C/C=C/1C [everolimus] + C=CCNC1=C2C[C@@H](C)C[C@H](OC)[C@H](O)[C@@H](C)/C=C(\C)[C@H](OC(N)=O)[C@@H](OC)/C=C\C=C(/C)C(=O)NC(=CC1=O)C2=O [Tanespimycin] (first compound 0.02 µM, partner dose 0.002 µM)",140,137,126,143,,163,,,161,79.6,88.7,133,69.6,115,118,152
"Nc1ccn([C@@H]2O[C@H](CO)[C@@H](O)C2(F)F)c(=O)n1 [gemcitabine] + Cn1cc(/C=C2\C(=O)Nc3cccnc32)c2ccccc21 [GW441756] (first compound 0.0004 µM, partner dose 0.4 µM)",98.7,72.8,157,110,85,192,370,207,109,140,48.5,99.2,31.2,105,59.9,
"Cc1cc(Nc2cc(N3CCN(C)CC3)nc(/C=C/c3ccccc3)n2)n[nH]1 + Nc1cccc2c1CN(C1CCC(=O)NC1=O)C2=O [lenalidomide] (first compound 0.04 µM, partner dose 1 µM)",113,102,59.9,37.9,,138,,,49.1,71.8,70.6,95.6,43.8,204,44,185
"CS(=O)(=O)CCNCc1ccc(-c2ccc3ncnc(Nc4ccc(OCc5cccc(F)c5)c(Cl)c4)c3c2)o1 [lapatinib] + Nc1cccc2c1CN(C1CCC(=O)NC1=O)C2=O [lenalidomide] (first compound 0.8 µM, partner dose 1 µM)",85.5,254,117,41.3,49.6,90.4,,,66,98.2,42.6,115,51.9,92.4,82,
"Cn1c(=O)n(-c2ccc(C(C)(C)C#N)cc2)c2c3cc(-c4cnc5ccccc5c4)ccc3ncc21 + COc1ccc(-c2ccc3c(N4CCOCC4)nc(N4C[C@@H](C)O[C@@H](C)C4)nc3n2)cc1CO [KU0063794] (first compound 0.004 µM, partner dose 0.02 µM)",46.9,72.6,95.2,310,235,29.3,70.5,149,154,43.2,99.7,89.3,73.3,147,76.5,
"O=C(O)[C@@H]1[O][Sb](=[O])([O][Sb]2(=[O])[O][C@H]([C@H](O)CO)[C@H](O)[C@H](C(=O)O)[O]2)[O][C@H]([C@H](O)CO)[C@@H]1O (stereo not given in full) [stibogluconate] + Cn1cncc1[C@@](N)(c1ccc(Cl)cc1)c1ccc2c(c1)c(-c1cccc(Cl)c1)cc(=O)n2C [tipifarnib] (first compound 2 µM, partner dose 0.01 µM)",49.6,84.6,218,56.7,122,107,62.7,123,61.6,233,165,82.8,61.6,214,406,
"CO[C@H]1C[C@@H]2CC[C@@H](C)[C@@](O)(O2)C(=O)C(=O)N2CCCC[C@H]2C(=O)O[C@H]([C@H](C)C[C@@H]2CC[C@@H](OCCO)[C@H](OC)C2)CC(=O)[C@H](C)/C=C(\C)[C@@H](O)[C@@H](OC)C(=O)[C@H](C)C[C@H](C)/C=C/C=C/C=C/1C [everolimus] + C[C@]1(c2nc3c(C(N)=O)cccc3[nH]2)CCCN1 [Veliparib] (first compound 0.02 µM, partner dose 1.4 µM)",151,73.4,94.1,70.6,,35.6,,,110,248,91.7,133,99.7,107,50.2,80.5

# 2 entries drawn at random from the list so far:
SMILES,cleaved PARP positive nuclei fraction (MeWo) [%],cleaved PARP positive nuclei fraction (RPMI7951) [%],cleaved PARP positive nuclei fraction (RVH-421) [%],cleaved PARP positive nuclei fraction (SkMel28) [%],cleaved PARP positive nuclei fraction (SkMel2) [%],cleaved PARP positive nuclei fraction (SkMel30) [%],cleaved PARP positive nuclei fraction (SkMel5) [%],cleaved PARP positive nuclei fraction (UACC257) [%],cleaved PARP positive nuclei fraction (UACC62) [%],cleaved PARP positive nuclei fraction (WM115) [%],cleaved PARP positive nuclei fraction (WM1716) [%],cleaved PARP positive nuclei fraction (WM1745) [%],cleaved PARP positive nuclei fraction (WM3526) [%],cleaved PARP positive nuclei fraction (WM3619) [%],cleaved PARP positive nuclei fraction (WM451Lu) [%],cleaved PARP positive nuclei fraction (MZ2-MEL) [%]
"CO[C@H]1C[C@@H]2CC[C@@H](C)[C@@](O)(O2)C(=O)C(=O)N2CCCC[C@H]2C(=O)O[C@H]([C@H](C)C[C@@H]2CC[C@@H](OCCO)[C@H](OC)C2)CC(=O)[C@H](C)/C=C(\C)[C@@H](O)[C@@H](OC)C(=O)[C@H](C)C[C@H](C)/C=C/C=C/C=C/1C [everolimus] + CCCS(=O)(=O)Nc1ccc(F)c(C(=O)c2c[nH]c3ncc(Cl)cc23)c1F [PLX4720] (first compound 0.02 µM, partner dose 0.08 µM)",138,73.2,120,279,,112,,,840,217,45.3,111,81.8,137,211,275
"Cc1cc(Nc2cc(N3CCN(C)CC3)nc(/C=C/c3ccccc3)n2)n[nH]1 + COc1cc2ncnc(Nc3ccc(Oc4ccccc4)cc3)c2cc1OC [SrcI1] (first compound 0.04 µM, partner dose 2 µM)",39,83.2,182,16.8,104,71,79.5,37.4,266,74.5,86.5,102,84.6,94.5,63.1,
